Source: PubChem BioAssay (EPA / NIEHS)
Values joined by “and” are separate entries in the source; they are usually repeats but may differ in a detail not shown here. Equal entries are not always repeated. The shares of active, inactive and inconclusive entries below differ from those in the screen. A potency beside an inconclusive call is a rough fit, not a confirmed value. Active and inactive are the calls of the source. How the source made its calls: active means hit-call score of the fitted dose curve at least 0.9, where 1 is the maximum; inconclusive means response in the unintended direction; inactive means score below 0.9.

By UniProt entry, the sequences of proteins in these tests, tags left out. Where a name states a change or a piece, a line headed by the entry shows the natural chain unless it says otherwise.
UniProt P04637, whole entry, looked up: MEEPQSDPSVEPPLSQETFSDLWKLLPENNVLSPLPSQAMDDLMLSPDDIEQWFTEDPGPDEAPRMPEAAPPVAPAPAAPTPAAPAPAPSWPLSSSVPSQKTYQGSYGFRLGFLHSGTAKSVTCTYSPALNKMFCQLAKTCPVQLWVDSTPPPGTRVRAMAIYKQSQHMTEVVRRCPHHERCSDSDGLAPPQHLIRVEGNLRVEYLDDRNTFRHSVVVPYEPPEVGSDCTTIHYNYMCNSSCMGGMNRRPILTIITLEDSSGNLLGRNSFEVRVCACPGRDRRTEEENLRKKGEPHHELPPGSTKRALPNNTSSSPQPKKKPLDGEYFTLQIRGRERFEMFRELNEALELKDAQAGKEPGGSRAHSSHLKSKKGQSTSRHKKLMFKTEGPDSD
UniProt P10827: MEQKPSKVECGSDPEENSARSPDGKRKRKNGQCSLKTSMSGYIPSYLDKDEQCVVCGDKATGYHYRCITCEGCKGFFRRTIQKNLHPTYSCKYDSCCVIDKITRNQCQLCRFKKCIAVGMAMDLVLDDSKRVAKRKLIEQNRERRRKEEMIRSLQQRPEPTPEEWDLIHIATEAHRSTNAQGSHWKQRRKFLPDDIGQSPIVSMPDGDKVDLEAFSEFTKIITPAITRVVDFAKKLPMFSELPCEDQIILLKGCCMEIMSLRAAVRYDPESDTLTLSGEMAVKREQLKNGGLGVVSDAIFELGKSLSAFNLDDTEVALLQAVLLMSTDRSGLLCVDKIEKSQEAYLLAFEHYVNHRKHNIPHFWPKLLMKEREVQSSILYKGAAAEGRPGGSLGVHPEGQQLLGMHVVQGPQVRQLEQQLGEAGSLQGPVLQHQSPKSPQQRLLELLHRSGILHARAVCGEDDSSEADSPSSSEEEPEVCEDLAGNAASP
UniProt P11473: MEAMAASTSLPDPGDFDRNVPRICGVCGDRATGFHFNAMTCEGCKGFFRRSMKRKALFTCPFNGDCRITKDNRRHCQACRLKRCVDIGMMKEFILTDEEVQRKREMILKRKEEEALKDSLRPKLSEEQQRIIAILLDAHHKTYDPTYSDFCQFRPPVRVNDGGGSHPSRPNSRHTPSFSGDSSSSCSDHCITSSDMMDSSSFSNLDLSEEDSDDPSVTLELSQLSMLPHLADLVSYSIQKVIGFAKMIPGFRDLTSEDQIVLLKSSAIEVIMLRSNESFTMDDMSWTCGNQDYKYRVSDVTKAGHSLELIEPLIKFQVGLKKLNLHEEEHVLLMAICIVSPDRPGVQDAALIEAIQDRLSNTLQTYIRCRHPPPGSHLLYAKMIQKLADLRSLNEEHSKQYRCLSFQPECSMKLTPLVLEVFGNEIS
UniProt P37231: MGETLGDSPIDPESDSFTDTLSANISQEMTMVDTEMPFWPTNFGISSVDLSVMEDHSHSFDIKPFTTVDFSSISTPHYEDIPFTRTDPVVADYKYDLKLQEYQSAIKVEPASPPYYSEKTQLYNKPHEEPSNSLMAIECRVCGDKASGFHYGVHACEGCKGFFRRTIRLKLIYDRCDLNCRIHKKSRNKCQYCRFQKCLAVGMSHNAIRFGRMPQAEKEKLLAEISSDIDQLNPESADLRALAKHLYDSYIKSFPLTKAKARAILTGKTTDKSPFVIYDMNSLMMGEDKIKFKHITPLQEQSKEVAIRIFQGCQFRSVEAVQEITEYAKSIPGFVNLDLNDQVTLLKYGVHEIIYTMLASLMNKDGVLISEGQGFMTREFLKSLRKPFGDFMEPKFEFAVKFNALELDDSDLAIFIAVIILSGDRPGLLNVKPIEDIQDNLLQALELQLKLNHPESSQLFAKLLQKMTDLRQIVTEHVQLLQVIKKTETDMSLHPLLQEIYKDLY
UniProt P04406: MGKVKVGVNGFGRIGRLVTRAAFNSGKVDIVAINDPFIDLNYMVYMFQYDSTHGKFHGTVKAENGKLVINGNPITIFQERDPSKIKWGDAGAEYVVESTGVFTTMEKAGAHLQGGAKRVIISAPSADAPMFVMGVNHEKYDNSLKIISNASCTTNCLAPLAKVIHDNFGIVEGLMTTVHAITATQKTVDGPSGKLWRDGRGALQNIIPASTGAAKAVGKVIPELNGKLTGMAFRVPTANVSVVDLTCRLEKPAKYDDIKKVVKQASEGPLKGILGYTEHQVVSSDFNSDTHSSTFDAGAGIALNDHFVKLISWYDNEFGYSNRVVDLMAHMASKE
UniProt Q03181: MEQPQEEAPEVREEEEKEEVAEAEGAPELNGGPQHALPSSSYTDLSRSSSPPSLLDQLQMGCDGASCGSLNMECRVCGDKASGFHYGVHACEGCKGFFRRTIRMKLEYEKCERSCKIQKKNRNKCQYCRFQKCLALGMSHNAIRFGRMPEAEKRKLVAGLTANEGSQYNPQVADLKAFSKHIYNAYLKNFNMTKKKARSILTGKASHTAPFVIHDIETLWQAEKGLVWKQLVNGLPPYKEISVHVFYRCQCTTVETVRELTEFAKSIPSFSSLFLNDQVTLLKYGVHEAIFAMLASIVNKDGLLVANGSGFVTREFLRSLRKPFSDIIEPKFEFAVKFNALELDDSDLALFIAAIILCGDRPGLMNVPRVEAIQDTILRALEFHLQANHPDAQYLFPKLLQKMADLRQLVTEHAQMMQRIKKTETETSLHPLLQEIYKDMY
UniProt P19793: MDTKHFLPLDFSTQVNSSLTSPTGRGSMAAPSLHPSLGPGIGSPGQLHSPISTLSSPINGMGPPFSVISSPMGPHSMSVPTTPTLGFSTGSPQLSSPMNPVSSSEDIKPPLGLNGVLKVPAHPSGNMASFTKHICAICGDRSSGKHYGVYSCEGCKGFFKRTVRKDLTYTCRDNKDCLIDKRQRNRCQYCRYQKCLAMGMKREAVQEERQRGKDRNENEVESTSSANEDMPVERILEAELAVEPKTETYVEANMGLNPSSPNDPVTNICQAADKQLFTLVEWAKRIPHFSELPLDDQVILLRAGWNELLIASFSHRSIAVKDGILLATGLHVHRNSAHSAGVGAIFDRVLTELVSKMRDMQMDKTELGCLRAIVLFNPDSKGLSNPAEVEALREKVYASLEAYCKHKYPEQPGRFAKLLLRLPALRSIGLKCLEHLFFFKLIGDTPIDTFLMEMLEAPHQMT

Experiments:
[1] = ATG_M_06_TRANS: Attagene TRANS-FACTORIAL HepG2 Assay for M06 Transcription Factor (Internal Marker) (AID 2282983); settings: HepG2 Attagene TRANS M06 internal marker reporter;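 on AC50: potency for rise in reporter mRNA above DMSO baseline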
How it was run: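 Internal-marker background readout from a multiplexed TRANS reporter system in HepG2; 24 h dosing; mRNA induction quantified by RT-PCR plus capillary electrophoresis fluorescence; DMSO as negative control and baseline.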

[2] = ATG_M_32_TRANS: Attagene TRANS-FACTORIAL HepG2 Assay for M32 Transcription Factor (Internal Marker) (AID 2282984); settings: HepG2 Attagene TRANS M32 internal marker reporter
How it was run: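 HepG2 cells transiently transfected with GAL4-UAS reporter units, dosed for 24 hours. Reporter mRNA quantified by RT-PCR, 6-FAM labelling, HpaI digestion and capillary electrophoresis; internal-marker signal fitted upward relative to DMSO.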

[3] = biological target: Cellular tumor antigen p53 (Homo sapiens) (UniProt P04637); test: TOX21_p53_BLA_p2_ratio: Tox21 HCT-116 p53 Agonism Beta-lactamase Assay, Ratio, Phase 2 (AID 2283592)
How it was run: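 Human colon HCT116 cells with an inducible p53 beta-lactamase reporter are exposed to test chemicals for 16 h at 37C. Reporter induction is read as the 460/530 nm emission ratio after CCF4-AM loading, normalized to DMSO.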

[4] = biological target: Cellular tumor antigen p53 (Homo sapiens) (UniProt P04637); test: TOX21_p53_BLA_p3_ratio: Tox21 HCT-116 p53 Agonism Beta-lactamase Assay, Ratio, Phase 3 (AID 2283596)
How it was run: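 HCT116 p53-bla cells (4000/well) given compound in DMSO (217-fold dilution) after 5 h, incubated 16 h at 37C. CCF4-AM substrate 2 h at room temperature; 460/530 nm emission ratio, gain fitted against DMSO.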

[5] = biological target: Cellular tumor antigen p53 (Homo sapiens) (UniProt P04637); test: TOX21_p53_BLA_p5_ratio: Tox21 HCT-116 p53 Agonism Beta-lactamase Assay, Ratio, Phase 5 (AID 2283599)
How it was run: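 HCT-116 p53-bla cells (4000/well) plated 5 h, dosed with compound (217-fold DMSO dilution) for 16 h at 37 C; CCF4-AM substrate 2 h at room temperature. Activity is the 460/530 nm emission ratio (405 nm excitation), fitted in gain-of-signal direction versus DMSO.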

[6] = TOX21_p53_BLA_p5_viability: Viability Assessment in the Tox21 HCT-116 p53 Agonism Beta-lactamase Assay, Phase 5 (AID 2283600)
How it was run: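 Seeded cells (4000/well) settle 5 h before compound addition. Plates then incubate 16 h at 37C, receive FRET substrate for 2 h, and finally CellTiter-Glo, with luminescence measured after a 30 min room-temperature incubation.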

[7] = biological target: Cellular tumor antigen p53 (Homo sapiens) (UniProt P04637); test: TOX21_p53_BLA_p4_ratio: Tox21 HCT-116 p53 Agonism Beta-lactamase Assay, Ratio, Phase 4 (AID 2283601)
How it was run: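 HCT-116 p53 beta-lactamase reporter cells (4000/well) preincubated 5 h, then compound (217-fold dilution of DMSO stock) for 16 h at 37C. CCF4-AM substrate added 2 h at room temperature; 460/530 nm emission ratio fitted upward versus DMSO.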

[8] = ACEA_ER_AUC_viability: ACEA Biosciences xCELLigence Real-Time Cell Analysis on Estrogen Receptor Agonism for Viability (AID 2283782);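 further: continuous compound exposure with impedance area under curve over 80 h; hit means loss of impedance signal meaning reduced cell growth or viability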
How it was run: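 T47D cells preconditioned in phenol red-free RPMI with charcoal-stripped FBS, then dosed with 8-point 1:4 series from 100 uM (up to 0.5% DMSO). Impedance monitored up to ~80 h; area-under-curve loss versus DMSO taken as viability.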

[9] = biological target: human Thyroid Receptor alpha (THRa1), THRA (gene 7067) (UniProt P10827); test: ATG_THRa1_TRANS: Attagene TRANS-FACTORIAL HepG2 Assay for human Thyroid Receptor alpha (THRa1) (AID 2283014)
How it was run: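 Measured here is mRNA from a GAL4-UAS reporter in transfected HepG2 cells carrying a Gal4-fused receptor, 24 h post-dose. DMSO served as negative control and baseline.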

[10] = biological target: human Vitamin D Receptor (VDR), VDR (gene 7421) (UniProt P11473); test: ATG_VDR_TRANS: Attagene TRANS-FACTORIAL HepG2 Assay for human Vitamin D Receptor (VDR) (AID 2283022)
How it was run: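 Multiplexed TRANS reporter in HepG2; 24 h treatment; reporter mRNA by RT-PCR plus capillary electrophoresis; upregulation scored relative to DMSO.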

[11] = biological target: Peroxisome proliferator-activated receptor gamma (Homo sapiens) (UniProt P37231); test: ATG_PPARg_TRANS: Attagene TRANS-FACTORIAL HepG2 Assay for human Peroxisome Proliferator-activated Receptor-gamma (PPARg) (AID 2283007)
How it was run: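 HepG2 cells are transiently transfected with GAL4-UAS reporter units driven by chimeric NR-Gal4 fusions and dosed for 24 h. Reporter mRNA is quantified by RT-PCR, 6-FAM labelling, HpaI digestion and capillary electrophoresis. Induction is scored against DMSO.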

[12] = read-out: HMG-CoA synthase (HMGCS2), HMGCS2 (gene 3158); test: CLD_HMGCS2_24hr: CellzDirect (CLD) Gene Expression Assay for HMG-CoA synthase (HMGCS2) at 24 hours (AID 2283691)
How it was run: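 Primary human hepatocytes from two donor preparations, dosed daily with fresh solutions; vehicle 0.2% DMSO, 24 h harvest. HMGCS2 mRNA quantified by qNPA with S1 nuclease digestion and chemiluminescence; gain fitted versus DMSO, cytotoxicity annotated by morphology.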

[13] = read-out: Glyceraldehyde-3-phosphate dehydrogenase (Homo sapiens) (UniProt P04406); test: CLD_GAPDH_48hr: CellzDirect (CLD) Gene Expression Assay for Baseline Control (Glyceraldehyde 3-phosphate dehydrogenase) at 48 hours (AID 2283706)
How it was run: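 Primary human hepatocytes dosed daily for two days with fresh chemical at multiple concentrations, 0.2% DMSO vehicle; GAPDH mRNA measured at 48 h by quantitative nuclease protection assay with chemiluminescence, fitted upward relative to DMSO as background control.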

[14] = read-out: organic anion transporter (SLCO1B1), SLCO1B1 (gene 10599); test: CLD_SLCO1B1_48hr: CellzDirect (CLD) Gene Expression Assay for organic anion transporter (SLCO1B1) at 48 hours (AID 2283707)
How it was run: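 Primary human hepatocytes from two donor preparations dosed daily for two days with multiple concentrations, 0.2% DMSO vehicle. SLCO1B1 mRNA at 48 h by quantitative nuclease protection assay, chemiluminescence; gain-of-signal fitted versus DMSO.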

[15] = read-out: HMG-CoA synthase (HMGCS2), HMGCS2 (gene 3158); test: CLD_HMGCS2_48hr: CellzDirect (CLD) Gene Expression Assay for HMG-CoA synthase (HMGCS2) at 48 hours (AID 2283711)
How it was run: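 Primary human hepatocytes from two donors dosed daily for two days, 0.2% DMSO vehicle. HMGCS2 mRNA measured 48 h after dosing by quantitative nuclease protection assay with chemiluminescent read-out; induction fitted relative to DMSO, cytotoxicity flagged by microscopy.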

[16] = CCTE_Harrill_HTTr_CellCount_MCF7: CCTE's Cell Proliferation Assessment for the High-Throughput Transcriptomics (HTTr) Platform, Harrill Lab (AID 2284012);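 further: cells exposed to compound for six hours; intended direction is loss of nuclei count meaning fewer cells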
How it was run: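 MCF7 cells exposed 6 hours to an eight-point dilution series; Hoechst-stained nuclei counted by high-content imaging. Bidirectional curve fitting against DMSO baseline.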

[17] = biological target: human Peroxisome Proliferator-activated Receptor delta (PPARd), PPARD (gene 5467) (UniProt Q03181); test: ATG_PPARd_TRANS: Attagene TRANS-FACTORIAL HepG2 Assay for human Peroxisome Proliferator-activated Receptor delta (PPARd) (AID 2283002)
How it was run: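 Read-out: reporter mRNA induction, quantified by fluorescent RT-PCR products resolved by capillary electrophoresis. Human HepG2 liver cells carried transiently transfected Gal4-UAS reporter constructs with chimeric NR-Gal4 fusions. Cells were dosed for 24 h; DMSO served as baseline.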

[18] = biological target: Retinoic acid receptor RXR-alpha (Homo sapiens) (UniProt P19793); test: ATG_RXRa_TRANS: Attagene TRANS-FACTORIAL HepG2 Assay for human Retinoid X Receptor alpha (RXRa) (AID 2283012)
How it was run: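 HepG2 cells transiently transfected with GAL4-UAS reporter units and chimeric RXRa-Gal4 protein, treated 24 h. Reporter mRNA measured by RT-PCR, fluorescent labelling, HpaI digestion and capillary electrophoresis. Induction fitted against DMSO.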

[19] = read-out: organic anion transporter (SLCO1B1), SLCO1B1 (gene 10599); test: CLD_SLCO1B1_6hr: CellzDirect (CLD) Gene Expression Assay for organic anion transporter (SLCO1B1) at 6 hours (AID 2283668);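 further: active means mRNA induction above DMSO baseline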
How it was run: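 Primary human hepatocytes dosed daily with test chemicals (multiple concentrations) in 0.2% DMSO vehicle; harvested at 6 h. SLCO1B1 mRNA quantified by qNPA chemiluminescence, fitted as gain-of-signal versus DMSO; cytotoxicity from phase-contrast morphology flagged alongside.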

[20] = CLD_ACTIN_24hr: CellzDirect (CLD) Gene Expression Assay for Baseline Control (Actin) at 24 hours (AID 2283670)
How it was run: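 Primary human hepatocytes dosed over multiple concentrations with 0.2% DMSO vehicle; actin mRNA measured at 24 h by qNPA chemiluminescence. Background control endpoint, fitted as gain of signal versus DMSO.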

Measured: AC50

CC(C)C1CCC(Cc2ccc(Cl)cc2)C1(O)Cn1cncn1 (stereo not drawn)
inactive: [1] | [2]
inconclusive: [1] 11.1 µM and 11 µM
active: [3] 67.8 µM | [4] 85.6 µM | [5] 82.8 µM | [6] 71.1 µM | [7] 88.7 µM | [8] 19.9 µM

CNC(=O)Oc1ccc(N(C)C)c(C)c1
inactive: [2] | [5]
inconclusive: [1] 0.0969 µM | [9] 100 µM | [10] 100 µM
active: [8] 39.7 µM

O=c1ccc(=O)[nH][nH]1
inconclusive: [10] 0.24 µM | [5] 45.8 µM | [6] 53.2 µM | [15] 0.0468 µM
inactive: [11] | [9] | [5] | [12] | [13] | [14]

CC(C)(OOC(C)(C)c1ccccc1)c1ccccc1
inactive: [5]
inconclusive: [2] 0.161 µM | [9] 0.598 µM | [4] 46.1 µM and 72.2 µM | [5] 45.5 µM | [7] 45.5 µM | [16] 1.07 µM

CCCCN(CCCCO)N=O
inconclusive: [2] 100 µM | [10] 100 µM | [3] 46.1 µM | [4] 46.1 µM | [5] 46.1 µM | [7] 46.1 µM
inactive: [11]

CS(=O)(=O)c1ccc(C(=O)C2C(=O)CCCC2=O)c(Cl)c1COCC(F)(F)F
inconclusive: [17] 174 µM | [11] 26.5 µM
inactive: [1] | [2] | [4]

COCC(C)N(C(=O)CCl)c1c(C)csc1C (stereo not drawn)
active: [11] 3.79 µM
inconclusive: [18] 7 µM | [6] 23 µM | [20] 20 µM | [12] 20 µM | [15] 32.1 µM | [8] 50 µM | [16] 50 µM
inactive: [2] | [19] | [13]

C#CCC1=C(C)C(OC(=O)C2C(C=C(C)C)C2(C)C)CC1=O (stereo not drawn)
inactive: [4] | [6] | [14]
active: [3] 86.7 µM | [8] 49.8 µM
inconclusive: [2] 100 µM | [9] 9.92 µM | [20] 7.12 µM | [12] 20 µM | [13] 11.6 µM | [15] 37.4 µM | [16] 47.5 µM

C[CH2][Hg][S]c1ccccc1C(=O)O
inactive: [17] | [9]
inconclusive: [2] 3.71 µM
active: [11] 3.71 µM | [4] 221 nM and 970 nM | [5] 350 nM and 3 µM | [7] 46.1 µM and 34.6 µM | [16] 50 µM

Looked up by structure from the entries so far (2):
CS(=O)(=O)c1ccc(C(=O)C2C(=O)CCCC2=O)c(Cl)c1COCC(F)(F)F
inconclusive: [17] 174 µM | [11] 26.5 µM
inactive: [1] | [2] | [4]

C[CH2][Hg][S]c1ccccc1C(=O)O
inactive: [17] | [9]
inconclusive: [2] 3.71 µM
active: [11] 3.71 µM | [4] 221 nM and 970 nM | [5] 350 nM and 3 µM | [7] 46.1 µM and 34.6 µM | [16] 50 µM

Next records follow:

CCOP(=O)(OCC)Oc1ccc([N+](=O)[O-])cc1
inconclusive: [3] 46.1 µM and 46.6 µM | [8] 50 µM | [16] 50 µM
inactive: [1] | [17]

CN(C)P(=O)(N(C)C)N(C)C
inactive: [2] | [9] | [5]
inconclusive: [17] 100 µM | [18] 0.0823 µM | [10] 1.88 µM | [5] 46.1 µM | [8] 0.0231 µM | [16] 50 µM

C1=Cc2cccc3cccc1c23
inactive: [18] | [4] | [7] | [8] | [16]
inconclusive: [6] 46.1 µM

CCC(=O)c1ccc(Cl)cc1
inactive: [2] | [9] | [10] | [8]
inconclusive: [11] 180 µM

COc1cc(OC)nc(NC(=O)NS(=O)(=O)c2cc(NC=O)ccc2C(=O)N(C)C)n1
inconclusive: [1] 24.6 µM | [2] 0.0127 µM | [17] 50 µM | [11] 9.92 µM | [10] 89.9 µM | [15] 0.0004 µM
inactive: [19] | [20] | [12] | [13] | [14]
